Results are given in words; binding and its absence hold for the method and conditions named. In cells and extracts the contact can be indirect. A result given as binding can be weak or reduced; the word gives no strength.
Target: GST fusion protein containing the Rho binding domain of rhotekin (UniProt Q8C6B2)
Test: pull-down; GST-pulldown: 10-20 µg of GST-RBD on beads with lysates of HeLa cells transfected with Myc-tagged XPLN (or GFP) or serum-starved and treated with EGF (2.5 ng/mL, 10 min); Western blot with anti-RhoA, anti-RhoB; only the target purified

Amino acid sequences for entries named in this document (tags omitted). A change or cut given only in a name is not applied to a line headed by its entry.
UniProt Q8C6B2: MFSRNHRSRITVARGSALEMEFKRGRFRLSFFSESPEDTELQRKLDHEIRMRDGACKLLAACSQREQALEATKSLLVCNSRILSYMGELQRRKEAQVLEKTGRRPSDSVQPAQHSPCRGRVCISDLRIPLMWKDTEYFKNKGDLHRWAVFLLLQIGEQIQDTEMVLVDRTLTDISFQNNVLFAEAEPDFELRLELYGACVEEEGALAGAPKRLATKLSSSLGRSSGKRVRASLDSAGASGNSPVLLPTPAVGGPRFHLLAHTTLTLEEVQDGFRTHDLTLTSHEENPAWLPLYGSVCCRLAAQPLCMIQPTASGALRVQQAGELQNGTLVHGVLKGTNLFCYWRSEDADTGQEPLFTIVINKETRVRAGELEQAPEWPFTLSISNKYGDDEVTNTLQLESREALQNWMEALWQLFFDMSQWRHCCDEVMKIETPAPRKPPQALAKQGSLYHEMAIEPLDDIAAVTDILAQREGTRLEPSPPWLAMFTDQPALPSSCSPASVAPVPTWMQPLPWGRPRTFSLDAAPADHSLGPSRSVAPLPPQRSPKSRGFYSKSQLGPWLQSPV
UniProt P62745: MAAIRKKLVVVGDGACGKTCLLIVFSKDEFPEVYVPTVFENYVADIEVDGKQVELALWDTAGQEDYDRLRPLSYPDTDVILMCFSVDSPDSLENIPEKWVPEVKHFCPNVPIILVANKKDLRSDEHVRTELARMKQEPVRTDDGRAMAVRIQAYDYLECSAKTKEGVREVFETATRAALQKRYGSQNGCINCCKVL
UniProt P61586: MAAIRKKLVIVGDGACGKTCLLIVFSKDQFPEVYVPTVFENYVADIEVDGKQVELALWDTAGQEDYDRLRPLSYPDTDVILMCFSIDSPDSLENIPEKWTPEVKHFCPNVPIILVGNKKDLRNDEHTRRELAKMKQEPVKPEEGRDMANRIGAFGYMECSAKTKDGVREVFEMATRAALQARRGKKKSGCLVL

binding	Substance
binds	endogenous RhoB (from UniProt P62745 1-196)
binds	endogenous RhoA (from UniProt P61586 1-193)

From paper PMC4218836
